The supplement of paper PMC11006884
This is a selection; strong and weak results do not stand in their true shares.

Compound: COC(=O)C#Cc1ccccc1 [methyl 3-phenylpropiolate]
Test: log2 ratio of iodoacetamide-alkyne labeling of the cysteine site, DMSO over compound (competition); higher = stronger covalent engagement of the cysteine by the compound, active = 1 or more
Conditions: 500 µM; treatment time 1 h; system: HEK293T cell lysate
Summary of the method: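 Three replicates, each with duplicate channels, were prepared from HEK293T lysate (2 mg/mL) treated with vehicle or electrophile at 500 µM for 1 h at ambient temperature. Iodoacetamide alkyne was then applied for 1 h, and samples were clicked to sCIP-TMT reagents, pooled, trypsin-digested overnight at 37 °C, enriched on streptavidin, acid-eluted and analysed on Orbitrap Eclipse LC-MS/MS with FAIMS, with FragPipe quantification. The log2 competition ratio per cysteine is the mean control-channel divided by the mean compound-channel reporter intensity. Cysteines quantified in only one replicate were left out.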

log2 ratio of iodoacetamide-alkyne labeling, active:
FAM83D C15 (UniProt Q9H4H8) 1.11, BRD7 C338 (UniProt Q9NPI1) 1.01

log2 ratio of iodoacetamide-alkyne labeling, inactive:
XAB2 C86 (UniProt Q9HCS7) -0.243, UniProt Q9NQ88_C114 0.336, OLA1 C117 (UniProt Q9NTK5) -0.153, TTC12 C525 (UniProt Q9H892) 0.76, RNPEP C223 (UniProt Q9H4A4) 0.512, DDX21 C161 (UniProt Q9NR30) 0.101, LANCL2 C49 (UniProt Q9NS86) -0.064, UPF2 C1107 (UniProt Q9HAU5) 0.18, ANLN C309 (UniProt Q9NQW6) 0.254, CELSR2 C2646 (UniProt Q9HCU4) 0.492, STRN4 C580 (UniProt Q9NRL3) 0.138, STARD7 C302 (UniProt Q9NQZ5) 0.0291, RAB18 C160 (UniProt Q9NP72) 0.305, UniProt Q9NUP1_C211 0.821, C17orf75 C296 (UniProt Q9HAS0) 0.689, XPO5 C1044 (UniProt Q9HAV4) 0.313, FKRP C296 (UniProt Q9H9S5) 0.158, GEMIN7 C44 (UniProt Q9H840) 0.0692, PPAN C391 (UniProt Q9NQ55) 0.505, PPA2 C44 (UniProt Q9H2U2) 0.00147, ISYNA1 C235 (UniProt Q9NPH2) -0.0574, C11orf68 C199 (UniProt Q9H3H3) -0.0264, STRN4 C337 (UniProt Q9NRL3) 0.488, DDX31 C413 (UniProt Q9H8H2) -0.0577, BRD7 C271 (UniProt Q9NPI1) 0.755, SMARCAD1 C106 (UniProt Q9H4L7) 0.439, LRRC40 C54 (UniProt Q9H9A6) 0.555, CCDC86 C116 (UniProt Q9H6F5) 0.382, UNC45A C420 (UniProt Q9H3U1) 0.56, NOL11 C368 (UniProt Q9H8H0) 0.498, AAAS C279 (UniProt Q9NRG9) 0.178, XPO5 C1025 (UniProt Q9HAV4) 0.313, CXorf56 C96 (UniProt Q9H5V9) -0.0277, UniProt Q9H8G2_C226 0.149
